{
  "sequences": {"note": "Protein sequences, listed by entry. Tags and fused reporters are not part of them.", "UniProt P62259": "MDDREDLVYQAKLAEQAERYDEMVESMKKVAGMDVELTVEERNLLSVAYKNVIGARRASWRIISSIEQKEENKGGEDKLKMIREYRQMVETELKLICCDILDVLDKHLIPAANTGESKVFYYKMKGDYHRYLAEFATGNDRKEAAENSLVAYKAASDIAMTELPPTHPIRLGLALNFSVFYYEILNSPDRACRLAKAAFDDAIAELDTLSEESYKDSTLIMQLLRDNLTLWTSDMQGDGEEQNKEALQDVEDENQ"},
  "source": "patent US20150024955A1",
  "about": "“Methods of Identifying Modulators of Dephosphorylation of Histone Deacetylase” (THE J. DAVID GLADSTONE INSTITUTES, priority 2006, published 2015)",
  "key": {"[1]": {"biological_target": "T1, FLAG-tagged human HDAC7 (human) (UniProt Q8WUI4)", "T1 sequence (looked up)": "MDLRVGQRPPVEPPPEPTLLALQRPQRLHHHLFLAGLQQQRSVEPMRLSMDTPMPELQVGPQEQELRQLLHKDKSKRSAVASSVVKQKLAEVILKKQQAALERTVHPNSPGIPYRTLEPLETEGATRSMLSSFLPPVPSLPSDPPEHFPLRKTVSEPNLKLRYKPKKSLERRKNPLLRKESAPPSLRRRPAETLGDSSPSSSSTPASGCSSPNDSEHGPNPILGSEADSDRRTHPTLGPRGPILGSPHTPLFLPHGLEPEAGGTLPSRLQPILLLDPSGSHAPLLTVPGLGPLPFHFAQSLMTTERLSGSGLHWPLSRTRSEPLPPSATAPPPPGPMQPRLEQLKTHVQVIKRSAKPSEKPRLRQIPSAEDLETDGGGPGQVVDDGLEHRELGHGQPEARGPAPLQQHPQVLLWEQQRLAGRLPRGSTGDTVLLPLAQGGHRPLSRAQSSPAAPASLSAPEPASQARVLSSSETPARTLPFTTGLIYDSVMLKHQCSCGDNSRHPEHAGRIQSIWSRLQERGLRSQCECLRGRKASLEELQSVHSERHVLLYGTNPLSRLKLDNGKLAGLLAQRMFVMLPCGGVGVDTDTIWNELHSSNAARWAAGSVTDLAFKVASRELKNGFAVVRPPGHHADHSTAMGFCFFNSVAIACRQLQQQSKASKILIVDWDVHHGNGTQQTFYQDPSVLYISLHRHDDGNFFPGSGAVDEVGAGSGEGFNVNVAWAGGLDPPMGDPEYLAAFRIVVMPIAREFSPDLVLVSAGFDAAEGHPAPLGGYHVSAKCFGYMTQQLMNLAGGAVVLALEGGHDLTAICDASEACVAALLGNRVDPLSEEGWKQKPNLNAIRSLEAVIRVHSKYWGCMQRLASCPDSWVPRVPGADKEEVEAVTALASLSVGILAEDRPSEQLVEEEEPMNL", "assay": "anti-FLAG M2 immunoprecipitation from DO11.10-HDAC7-Flag cells, Coomassie gel, mass spectrometry"}, "[2]": {"biological_target": "T1, FLAG-tagged human HDAC7 (human)", "assay": "anti-FLAG immunoprecipitation from DO11.10-HDAC7-Flag cells, SDS-PAGE, mass spectrometry"}},
  "note": "No constants are given. Whether binding was seen depends on the method and setting. In cells and extracts the contact can be indirect. These calls come from enrichment with a bait or labelling near it, and not all partners need be listed. Sequences can lack the tags named with a protein.",
  "data": [
    {"substance": "14-3-3 protein epsilon (from UniProt P62259 1-255)", "values": [
      {"measurement": "binding", "setting": "[1]", "result": "binds"},
      {"measurement": "binding", "setting": "[2]", "result": "binds"}
    ]}
  ]
}
